Changes are numbered by the printed parent chain. Only a part is listed here, and it is no random draw. The calls were merged from several studies; some rest on single wells. Some of the results follow.

Chains of the proteins cited; added tags and fusions are not shown. A line that says so, or that is headed by a name, gives the form on record, which may keep a tag or linker.
O52E8, as listed by the source: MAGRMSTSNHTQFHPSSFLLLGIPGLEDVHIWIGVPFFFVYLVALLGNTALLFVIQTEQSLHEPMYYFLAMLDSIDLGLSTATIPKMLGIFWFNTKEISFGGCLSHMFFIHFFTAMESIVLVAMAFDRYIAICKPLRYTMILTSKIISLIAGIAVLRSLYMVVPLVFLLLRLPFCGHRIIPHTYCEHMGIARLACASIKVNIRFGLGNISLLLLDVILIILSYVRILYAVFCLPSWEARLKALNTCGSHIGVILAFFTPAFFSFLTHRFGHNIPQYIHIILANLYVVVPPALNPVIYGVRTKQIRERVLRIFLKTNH
O51L1, as listed by the source: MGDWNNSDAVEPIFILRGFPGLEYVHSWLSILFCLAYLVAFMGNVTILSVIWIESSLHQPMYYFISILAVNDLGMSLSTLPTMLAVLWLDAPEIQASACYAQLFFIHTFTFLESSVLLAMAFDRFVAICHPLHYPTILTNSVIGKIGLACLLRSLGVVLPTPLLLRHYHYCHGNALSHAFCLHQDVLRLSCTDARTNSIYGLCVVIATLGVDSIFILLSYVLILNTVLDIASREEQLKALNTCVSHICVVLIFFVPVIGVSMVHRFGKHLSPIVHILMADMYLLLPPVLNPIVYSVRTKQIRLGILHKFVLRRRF
O52E4, as listed by the source: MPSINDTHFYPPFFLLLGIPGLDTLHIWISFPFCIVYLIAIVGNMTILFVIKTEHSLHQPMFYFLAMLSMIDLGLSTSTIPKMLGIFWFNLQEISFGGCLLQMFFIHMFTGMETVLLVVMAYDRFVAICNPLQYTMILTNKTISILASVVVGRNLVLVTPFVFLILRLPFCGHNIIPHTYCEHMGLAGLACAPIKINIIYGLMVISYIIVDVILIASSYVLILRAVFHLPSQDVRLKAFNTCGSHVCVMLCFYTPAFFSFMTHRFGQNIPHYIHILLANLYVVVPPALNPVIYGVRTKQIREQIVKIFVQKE
O52E1, as listed by the source: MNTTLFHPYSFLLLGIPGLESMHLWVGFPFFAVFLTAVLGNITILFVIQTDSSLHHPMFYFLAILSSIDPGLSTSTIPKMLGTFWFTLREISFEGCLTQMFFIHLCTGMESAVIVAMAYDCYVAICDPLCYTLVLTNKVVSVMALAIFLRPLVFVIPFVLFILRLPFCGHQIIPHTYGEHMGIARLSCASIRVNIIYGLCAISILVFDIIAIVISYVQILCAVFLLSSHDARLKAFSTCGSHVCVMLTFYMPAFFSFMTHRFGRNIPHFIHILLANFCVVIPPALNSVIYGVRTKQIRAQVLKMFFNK
O51V1, as listed by the source: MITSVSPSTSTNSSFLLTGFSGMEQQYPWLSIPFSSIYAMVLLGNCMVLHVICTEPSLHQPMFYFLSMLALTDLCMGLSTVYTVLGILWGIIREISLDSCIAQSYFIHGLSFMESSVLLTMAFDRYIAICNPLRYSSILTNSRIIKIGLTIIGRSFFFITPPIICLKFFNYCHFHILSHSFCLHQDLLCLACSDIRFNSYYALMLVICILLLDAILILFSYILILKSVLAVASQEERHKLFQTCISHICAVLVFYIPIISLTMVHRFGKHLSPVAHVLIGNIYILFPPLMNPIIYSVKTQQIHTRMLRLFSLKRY
O52E2, as listed by the source: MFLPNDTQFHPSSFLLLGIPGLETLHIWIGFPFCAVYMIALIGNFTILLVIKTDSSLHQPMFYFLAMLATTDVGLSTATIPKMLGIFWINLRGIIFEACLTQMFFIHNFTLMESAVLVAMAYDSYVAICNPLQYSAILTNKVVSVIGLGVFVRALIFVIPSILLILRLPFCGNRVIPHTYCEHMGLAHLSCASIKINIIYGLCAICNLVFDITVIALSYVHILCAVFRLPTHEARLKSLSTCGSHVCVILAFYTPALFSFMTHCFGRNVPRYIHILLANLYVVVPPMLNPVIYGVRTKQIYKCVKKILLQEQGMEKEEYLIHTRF
O52E5, as listed by the source: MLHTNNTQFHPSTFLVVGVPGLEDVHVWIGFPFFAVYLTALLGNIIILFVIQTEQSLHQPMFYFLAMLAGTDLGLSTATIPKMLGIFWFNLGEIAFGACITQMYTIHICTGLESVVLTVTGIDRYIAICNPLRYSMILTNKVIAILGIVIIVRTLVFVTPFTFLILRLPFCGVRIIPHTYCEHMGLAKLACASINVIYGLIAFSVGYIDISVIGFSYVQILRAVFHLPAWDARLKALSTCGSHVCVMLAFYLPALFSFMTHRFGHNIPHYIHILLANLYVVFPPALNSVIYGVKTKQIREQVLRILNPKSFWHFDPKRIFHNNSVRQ

What all share (settings): stereoisomer not certain
For one assay, the system named is T1, O51G1.
T1 sequence (whole entry): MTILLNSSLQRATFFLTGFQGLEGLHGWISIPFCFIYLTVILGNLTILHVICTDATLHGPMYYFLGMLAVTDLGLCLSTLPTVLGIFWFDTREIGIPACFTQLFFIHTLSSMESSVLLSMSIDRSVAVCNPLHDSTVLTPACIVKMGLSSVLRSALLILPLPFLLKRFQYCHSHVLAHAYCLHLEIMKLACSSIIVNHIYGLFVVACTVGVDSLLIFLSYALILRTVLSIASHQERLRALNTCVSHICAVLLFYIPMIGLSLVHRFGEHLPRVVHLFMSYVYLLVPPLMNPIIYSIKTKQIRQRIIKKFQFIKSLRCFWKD
In outline:
(§1)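 Each entry records the cell line, G-protein, co-transfected protein and tags used. Methods varied with the source, often transient luciferase assays in mammalian cell lines. A receptor–molecule pair is called responsive (active) if the original authors judged its signal statistically different from baseline and non-responsive (inactive) otherwise.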

In another assay the test system is T2, O51G2.
T2 sequence (whole entry): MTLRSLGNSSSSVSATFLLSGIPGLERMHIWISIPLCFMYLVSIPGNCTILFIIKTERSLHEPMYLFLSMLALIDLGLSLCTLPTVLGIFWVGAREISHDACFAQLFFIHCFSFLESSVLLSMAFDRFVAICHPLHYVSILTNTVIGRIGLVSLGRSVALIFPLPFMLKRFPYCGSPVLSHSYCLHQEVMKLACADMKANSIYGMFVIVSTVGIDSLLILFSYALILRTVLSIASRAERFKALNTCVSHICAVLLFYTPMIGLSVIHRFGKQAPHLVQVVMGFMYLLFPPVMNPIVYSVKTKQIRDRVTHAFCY
The method in brief:
as §1

For another assay, the system named is T3, O51J1.
T3 sequence (whole entry): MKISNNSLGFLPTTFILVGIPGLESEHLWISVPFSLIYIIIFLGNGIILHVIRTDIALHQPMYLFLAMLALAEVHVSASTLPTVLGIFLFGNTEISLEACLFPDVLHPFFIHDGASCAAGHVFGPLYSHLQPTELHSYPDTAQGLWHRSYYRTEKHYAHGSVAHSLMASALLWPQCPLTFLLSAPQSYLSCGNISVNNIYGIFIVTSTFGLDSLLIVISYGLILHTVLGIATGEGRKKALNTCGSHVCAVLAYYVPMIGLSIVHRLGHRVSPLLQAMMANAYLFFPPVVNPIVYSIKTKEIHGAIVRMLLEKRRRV
The method in brief:
as §1

In assay [1] the test system is T4, O51L1.
T4 sequence (whole entry): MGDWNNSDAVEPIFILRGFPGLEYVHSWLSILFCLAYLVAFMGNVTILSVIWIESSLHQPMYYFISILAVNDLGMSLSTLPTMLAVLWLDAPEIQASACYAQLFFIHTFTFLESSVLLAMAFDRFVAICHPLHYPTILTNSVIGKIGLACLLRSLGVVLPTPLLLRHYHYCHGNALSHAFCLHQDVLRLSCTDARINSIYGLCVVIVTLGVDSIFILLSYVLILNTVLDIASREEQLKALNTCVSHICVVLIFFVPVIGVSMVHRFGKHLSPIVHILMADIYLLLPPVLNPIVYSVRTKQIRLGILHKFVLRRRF
In outline: as §1

Assay [2] relates to T5, O51L1.
T5 sequence (whole entry): T4 sequence (whole entry) with I196T, V207A, I281M
In outline:
as §1
This is another data set of the same source.

The subject of a further assay is T6, O51M1.
T6 sequence (whole entry): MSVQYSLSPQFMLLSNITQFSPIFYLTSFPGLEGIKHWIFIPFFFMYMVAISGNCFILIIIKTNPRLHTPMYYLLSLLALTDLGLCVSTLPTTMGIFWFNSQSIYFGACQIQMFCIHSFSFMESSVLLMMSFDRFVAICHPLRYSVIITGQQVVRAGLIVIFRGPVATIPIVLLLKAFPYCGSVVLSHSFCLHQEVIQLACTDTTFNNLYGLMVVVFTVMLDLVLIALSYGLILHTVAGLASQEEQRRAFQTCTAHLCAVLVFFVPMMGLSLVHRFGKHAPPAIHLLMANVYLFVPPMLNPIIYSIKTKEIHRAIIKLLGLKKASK
In outline: as §1

The next assay relates to T7, O51Q1.
T7 sequence (whole entry): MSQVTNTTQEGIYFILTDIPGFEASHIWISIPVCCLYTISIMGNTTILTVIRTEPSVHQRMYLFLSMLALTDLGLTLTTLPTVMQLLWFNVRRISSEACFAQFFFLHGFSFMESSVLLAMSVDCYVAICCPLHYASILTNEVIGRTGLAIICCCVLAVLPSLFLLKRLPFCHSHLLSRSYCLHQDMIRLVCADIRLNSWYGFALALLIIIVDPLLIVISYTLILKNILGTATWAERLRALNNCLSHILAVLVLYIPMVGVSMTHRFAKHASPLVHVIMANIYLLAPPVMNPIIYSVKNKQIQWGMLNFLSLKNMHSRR
The method in brief: as §1

The test system of another assay is T8, O51T1.
T8 sequence (whole entry): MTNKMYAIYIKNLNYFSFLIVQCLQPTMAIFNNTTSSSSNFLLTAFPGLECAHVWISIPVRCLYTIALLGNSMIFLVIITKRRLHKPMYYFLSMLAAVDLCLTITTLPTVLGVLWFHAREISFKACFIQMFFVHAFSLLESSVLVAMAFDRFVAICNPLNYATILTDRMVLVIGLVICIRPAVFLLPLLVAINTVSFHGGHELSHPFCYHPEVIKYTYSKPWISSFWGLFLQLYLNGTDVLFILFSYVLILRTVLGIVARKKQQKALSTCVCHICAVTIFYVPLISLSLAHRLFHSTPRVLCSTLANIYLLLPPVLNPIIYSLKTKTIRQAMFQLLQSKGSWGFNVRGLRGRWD
The method in brief:
as §1

Assay [3] has as its system T9, O51V1.
T9 sequence (whole entry): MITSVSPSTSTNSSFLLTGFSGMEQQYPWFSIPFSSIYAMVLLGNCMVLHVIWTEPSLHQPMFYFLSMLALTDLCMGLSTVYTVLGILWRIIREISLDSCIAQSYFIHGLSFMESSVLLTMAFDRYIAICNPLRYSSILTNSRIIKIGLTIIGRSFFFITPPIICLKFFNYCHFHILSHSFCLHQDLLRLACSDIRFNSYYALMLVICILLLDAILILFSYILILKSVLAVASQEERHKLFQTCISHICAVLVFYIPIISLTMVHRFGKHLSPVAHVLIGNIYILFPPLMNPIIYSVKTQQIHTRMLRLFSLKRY
The method in brief: as §1

In assay [4] the test system is T10, O51V1.
T10 sequence (whole entry): T9 sequence (whole entry) with F30L, W53C, R90G, R189C
In outline:
as §1
This is another data set of the same source.

A further assay has as its system T11, O52A1.
T11 sequence (whole entry): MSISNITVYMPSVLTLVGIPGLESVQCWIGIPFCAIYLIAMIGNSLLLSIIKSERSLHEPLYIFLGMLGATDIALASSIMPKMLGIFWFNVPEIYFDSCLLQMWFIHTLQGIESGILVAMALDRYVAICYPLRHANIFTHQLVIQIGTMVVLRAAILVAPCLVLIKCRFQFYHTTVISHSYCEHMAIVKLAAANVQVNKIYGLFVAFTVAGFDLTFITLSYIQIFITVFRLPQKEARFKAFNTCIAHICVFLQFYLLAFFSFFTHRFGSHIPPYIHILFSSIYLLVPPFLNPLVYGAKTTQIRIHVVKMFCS
In outline:
as §1

The test system of the next assay is T12, O52B2.
T12 sequence (whole entry): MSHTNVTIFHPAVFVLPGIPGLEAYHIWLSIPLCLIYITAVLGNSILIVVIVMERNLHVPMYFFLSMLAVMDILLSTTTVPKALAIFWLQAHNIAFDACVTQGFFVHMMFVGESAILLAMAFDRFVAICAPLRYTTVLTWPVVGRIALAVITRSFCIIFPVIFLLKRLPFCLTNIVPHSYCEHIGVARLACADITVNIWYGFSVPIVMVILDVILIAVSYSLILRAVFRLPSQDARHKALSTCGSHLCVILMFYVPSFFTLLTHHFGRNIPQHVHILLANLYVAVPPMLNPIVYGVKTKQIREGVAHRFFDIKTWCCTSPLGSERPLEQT
In outline: as §1

Another assay relates to T13, O52B6.
T13 sequence (whole entry): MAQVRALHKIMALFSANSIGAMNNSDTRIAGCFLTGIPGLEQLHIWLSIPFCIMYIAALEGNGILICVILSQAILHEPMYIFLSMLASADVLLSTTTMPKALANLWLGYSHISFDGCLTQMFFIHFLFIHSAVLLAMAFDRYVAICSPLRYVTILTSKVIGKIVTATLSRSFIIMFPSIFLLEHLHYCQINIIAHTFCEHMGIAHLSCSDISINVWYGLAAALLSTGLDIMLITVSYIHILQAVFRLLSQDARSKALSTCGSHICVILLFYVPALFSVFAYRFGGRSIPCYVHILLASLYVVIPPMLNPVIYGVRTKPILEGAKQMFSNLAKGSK
In outline: as §1

A further assay deals with O52E1. In outline: as §1
The subject of a further assay is O52E2. The method in brief:
as §1

For a further assay, the system named is O52E4. In outline: as §1
A further assay deals with O52E5. The method in brief: as §1
In a further assay the test system is O52E8. The method in brief: as §1
In the next assay the test system is T14, O52I2.
T14 sequence (whole entry): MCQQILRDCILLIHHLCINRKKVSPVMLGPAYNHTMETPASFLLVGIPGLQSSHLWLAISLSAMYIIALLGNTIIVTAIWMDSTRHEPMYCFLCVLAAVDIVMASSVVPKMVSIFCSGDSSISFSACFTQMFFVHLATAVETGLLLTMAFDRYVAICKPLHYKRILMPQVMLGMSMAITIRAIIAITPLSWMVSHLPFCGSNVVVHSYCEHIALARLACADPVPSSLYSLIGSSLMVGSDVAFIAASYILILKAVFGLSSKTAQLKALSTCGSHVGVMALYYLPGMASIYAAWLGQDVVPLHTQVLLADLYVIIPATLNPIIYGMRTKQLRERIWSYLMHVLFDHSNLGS
The method in brief: as §1

In the case of `CC12CCC(CC1)C(C)(C)O2`, the “odorant receptor agonist call” value in the assay with O51G1, with O51G2, in the assay with O51J1, with O51L1 [1], with O51L1 [2] and with O51M1 was “inactive” each time. Further, the “odorant receptor agonist call” value with O51Q1, with O51T1, with O51V1 [3], in the assay on O51V1 [4], with O52A1 and with O52B2 was “inactive” throughout. In addition, the “odorant receptor agonist call” value with O52B6, with O52E1, with O52E2, in the assay on O52E4, with O52E5 and in the assay on O52E8 was “inactive” each time. The “odorant receptor agonist call” value with O52I2 was “inactive”.
Turning to `CCCCCCCC=O`, the “odorant receptor agonist call” value in the assay with O51G1, in the assay on O51G2, in the assay on O51J1, with O51L1 [1], in the assay on O51L1 [2] and with O51M1 was “inactive” each time. In addition, the “odorant receptor agonist call” value in the assay on O51Q1, with O51T1, in the assay with O51V1 [3], in the assay with O51V1 [4], with O52A1 and with O52B2 was “inactive” throughout. The “odorant receptor agonist call” value in the assay with O52B6, in the assay with O52E1, in the assay on O52E2, in the assay on O52E4, with O52E5 and in the assay with O52E8 was “inactive” in each case. Besides, the “odorant receptor agonist call” value in the assay with O52I2 was “inactive”.
Take `CC12CCC(C1)C(C)(C)C2=O` (stereo not given): the “odorant receptor agonist call” value in the assay on O51G1, in the assay on O51G2, in the assay with O51J1, with O51L1 [1], in the assay with O51L1 [2] and in the assay on O51Q1 was “inactive” throughout. For the same compound, the “odorant receptor agonist call” value with O51T1, with O51V1 [3], in the assay with O51V1 [4], with O52A1, in the assay with O52B2 and in the assay with O52B6 was “inactive” each time. Moreover, the “odorant receptor agonist call” value in the assay with O52E1, with O52E2, with O52E8 and in the assay on O52I2 was “inactive” throughout. Moreover, the “odorant receptor agonist call” value in the assay on O51M1, in the assay on O52E4 and in the assay with O52E5 was “active” in each case.
In the case of `CC1=CCC(C(C)(C)O)CC1` (stereo not given), the “odorant receptor agonist call” value in the assay on O51G1, with O51G2, in the assay with O51J1, in the assay on O51L1 [1], in the assay on O51L1 [2] and in the assay on O51M1 was “inactive” in each case. For the same compound, the “odorant receptor agonist call” value in the assay on O51Q1, in the assay with O51T1, in the assay on O51V1 [3], in the assay with O51V1 [4], in the assay on O52A1 and with O52B2 was “inactive” throughout. For the same compound, the “odorant receptor agonist call” value in the assay with O52B6, in the assay with O52E1, with O52E2, in the assay on O52E4, in the assay on O52E5 and with O52E8 was “inactive” in each case. The “odorant receptor agonist call” value with O52I2 was “inactive”.
Regarding `CC(C)C=O`, the “odorant receptor agonist call” value with O51G1, in the assay on O51G2, in the assay with O51J1, in the assay on O51L1 [1], in the assay with O51L1 [2] and in the assay with O51M1 was “inactive” throughout. Further, the “odorant receptor agonist call” value in the assay on O51Q1, with O51T1, in the assay with O51V1 [3], with O51V1 [4], in the assay with O52A1 and in the assay on O52B2 was “inactive” throughout. Besides, the “odorant receptor agonist call” value with O52B6, with O52E1, in the assay on O52E2, in the assay on O52E4, in the assay with O52E5 and in the assay with O52E8 was “inactive” in each case. Also, the “odorant receptor agonist call” value in the assay with O52I2 was “inactive”.

The record behind these values is the M2OR odorant receptor database.
